Reference: patent US20160045472A1, “UROLITHIN B FOR MUSCLE GROWTH” (PROCELL SPRL, priority 2013, published 2016)
At least one compound was matched to its structure with a doubt left.

Test system: C2C12 murine skeletal muscle myoblasts
Experiment: diameter of C2C12 myotubes (anti-desmin labelling)
Assay type: cell-based
Conditions: added with urolithin B
Method: The inventors selected C2C12 murine skeletal muscle myoblasts for measuring the effect of polyphenols on muscle metabolism, especially when submitted to inflammatory stress (e.g. upon TNF-alpha exposure). In these conditions, anabolism is blocked.
C2C12 myoblasts were differentiated for 4 days using 1% horse serum and 1% penicillin/streptomycin. The cells were thereafter grown for 24 h either with the same differentiation medium or with the differentiation medium supplemented with 15 μM urolithin B (conditions 5-8 of FIGS. 2-4 and of Table 1). Then the cells were grown either with the same differentiation medium or in the differentiation medium supplemented with 10 ng/mL TNF-alpha for 4 h (conditions 3-4 and 7-8 of FIGS. 2-4 and of Table 1). Thereafter, the cells were grown either with the same differentiation medium or in the differentiation medium supplemented with 5 mM leucine (conditions 2, 4, 6 and 8 of FIGS. 2-4 and of Table 1). The myotubes were labelled using anti-desmin antibodies, and nuclei labelling by Hoechst staining. Urolithin B consistently stimulates the diameter of myotubes.

Row | SMILES | effect on urolithin B-effect on the diameter of myotubes
1 | CC(O)(CS(=O)(=O)c1ccc(F)cc1)C(=O)Nc1ccc(C#N)c(C(F)(F)F)c1 (centres unmarked) [Bicalutamide, bicalutamide, reference compound] | blocks
2 | CO[C@H]1C[C@@H]2CC[C@@H](C)[C@@](O)(O2)C(=O)C(=O)N2CCCC[C@H]2C(=O)O[C@H]([C@H](C)C[C@@H]2CC[C@@H](O)[C@H](OC)C2)CC(=O)[C@H](C)/C=C(\C)[C@@H](O)[C@@H](OC)C(=O)[C@H](C)C[C@H](C)/C=C/C=C/C=C/1C [Rapamycin, rapamycin, reference compound] | blocks
